Laboratory results taken from the supplement of paper PMC10849652.
Some of the results follow.

Amino acid sequences for entries named in this document (tags omitted). A change or cut given only in a name is not applied to a line headed by its entry.
UniProt Q8WZA9: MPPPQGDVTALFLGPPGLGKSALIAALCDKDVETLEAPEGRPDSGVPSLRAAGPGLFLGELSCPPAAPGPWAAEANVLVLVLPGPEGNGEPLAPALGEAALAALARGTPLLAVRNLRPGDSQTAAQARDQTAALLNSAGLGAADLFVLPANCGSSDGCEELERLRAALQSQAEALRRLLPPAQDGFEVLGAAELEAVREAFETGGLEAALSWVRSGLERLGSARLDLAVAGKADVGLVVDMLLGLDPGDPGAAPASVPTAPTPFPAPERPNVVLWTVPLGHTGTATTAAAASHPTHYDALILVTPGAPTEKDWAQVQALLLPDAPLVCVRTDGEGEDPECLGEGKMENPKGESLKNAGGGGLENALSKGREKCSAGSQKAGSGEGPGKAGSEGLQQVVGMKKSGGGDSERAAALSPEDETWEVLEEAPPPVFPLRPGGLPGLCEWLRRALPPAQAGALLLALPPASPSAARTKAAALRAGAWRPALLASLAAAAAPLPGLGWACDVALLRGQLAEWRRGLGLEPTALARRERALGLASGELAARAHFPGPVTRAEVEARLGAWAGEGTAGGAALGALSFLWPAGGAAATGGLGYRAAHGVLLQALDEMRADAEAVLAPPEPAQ
UniProt O75054: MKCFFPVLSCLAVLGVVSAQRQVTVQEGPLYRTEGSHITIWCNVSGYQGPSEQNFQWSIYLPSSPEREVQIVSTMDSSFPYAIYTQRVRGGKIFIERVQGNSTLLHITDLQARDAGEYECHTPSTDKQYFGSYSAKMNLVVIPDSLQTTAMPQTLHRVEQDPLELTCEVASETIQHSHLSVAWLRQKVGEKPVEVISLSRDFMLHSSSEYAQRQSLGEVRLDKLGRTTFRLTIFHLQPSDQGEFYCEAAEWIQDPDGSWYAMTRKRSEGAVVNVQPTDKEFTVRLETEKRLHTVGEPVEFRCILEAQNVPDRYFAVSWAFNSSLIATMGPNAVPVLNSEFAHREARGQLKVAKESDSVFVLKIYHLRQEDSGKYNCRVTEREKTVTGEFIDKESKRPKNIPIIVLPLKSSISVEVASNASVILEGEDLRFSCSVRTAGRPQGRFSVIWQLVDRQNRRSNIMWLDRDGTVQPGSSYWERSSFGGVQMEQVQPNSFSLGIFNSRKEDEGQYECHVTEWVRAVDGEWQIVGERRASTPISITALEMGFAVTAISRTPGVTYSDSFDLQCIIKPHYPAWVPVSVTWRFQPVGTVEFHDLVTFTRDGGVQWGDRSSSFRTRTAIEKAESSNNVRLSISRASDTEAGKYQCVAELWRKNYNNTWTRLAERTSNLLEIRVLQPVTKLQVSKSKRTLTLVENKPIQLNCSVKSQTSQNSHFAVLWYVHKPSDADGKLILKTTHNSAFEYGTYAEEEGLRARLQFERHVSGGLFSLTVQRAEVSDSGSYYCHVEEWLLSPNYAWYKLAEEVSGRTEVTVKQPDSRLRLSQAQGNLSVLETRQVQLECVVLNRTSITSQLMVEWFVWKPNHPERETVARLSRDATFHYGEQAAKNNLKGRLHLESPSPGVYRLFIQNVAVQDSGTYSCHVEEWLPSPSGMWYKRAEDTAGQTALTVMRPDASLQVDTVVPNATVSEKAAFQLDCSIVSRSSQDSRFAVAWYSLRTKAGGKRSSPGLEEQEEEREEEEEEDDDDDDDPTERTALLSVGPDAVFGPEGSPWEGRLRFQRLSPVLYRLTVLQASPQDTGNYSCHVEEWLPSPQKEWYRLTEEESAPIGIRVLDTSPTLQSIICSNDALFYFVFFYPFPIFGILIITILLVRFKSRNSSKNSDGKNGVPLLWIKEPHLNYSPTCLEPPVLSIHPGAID
UniProt Q12894: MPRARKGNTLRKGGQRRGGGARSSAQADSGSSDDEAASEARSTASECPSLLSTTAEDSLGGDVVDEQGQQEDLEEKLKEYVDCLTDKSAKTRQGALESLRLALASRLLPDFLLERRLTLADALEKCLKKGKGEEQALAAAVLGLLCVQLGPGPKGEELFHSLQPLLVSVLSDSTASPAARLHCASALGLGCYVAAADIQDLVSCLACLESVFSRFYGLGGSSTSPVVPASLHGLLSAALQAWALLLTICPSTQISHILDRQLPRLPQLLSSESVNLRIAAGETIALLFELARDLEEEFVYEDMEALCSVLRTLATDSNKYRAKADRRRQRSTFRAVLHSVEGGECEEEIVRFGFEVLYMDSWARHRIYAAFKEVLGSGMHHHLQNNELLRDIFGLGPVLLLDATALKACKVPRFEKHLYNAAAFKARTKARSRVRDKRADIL
UniProt Q8TEX9: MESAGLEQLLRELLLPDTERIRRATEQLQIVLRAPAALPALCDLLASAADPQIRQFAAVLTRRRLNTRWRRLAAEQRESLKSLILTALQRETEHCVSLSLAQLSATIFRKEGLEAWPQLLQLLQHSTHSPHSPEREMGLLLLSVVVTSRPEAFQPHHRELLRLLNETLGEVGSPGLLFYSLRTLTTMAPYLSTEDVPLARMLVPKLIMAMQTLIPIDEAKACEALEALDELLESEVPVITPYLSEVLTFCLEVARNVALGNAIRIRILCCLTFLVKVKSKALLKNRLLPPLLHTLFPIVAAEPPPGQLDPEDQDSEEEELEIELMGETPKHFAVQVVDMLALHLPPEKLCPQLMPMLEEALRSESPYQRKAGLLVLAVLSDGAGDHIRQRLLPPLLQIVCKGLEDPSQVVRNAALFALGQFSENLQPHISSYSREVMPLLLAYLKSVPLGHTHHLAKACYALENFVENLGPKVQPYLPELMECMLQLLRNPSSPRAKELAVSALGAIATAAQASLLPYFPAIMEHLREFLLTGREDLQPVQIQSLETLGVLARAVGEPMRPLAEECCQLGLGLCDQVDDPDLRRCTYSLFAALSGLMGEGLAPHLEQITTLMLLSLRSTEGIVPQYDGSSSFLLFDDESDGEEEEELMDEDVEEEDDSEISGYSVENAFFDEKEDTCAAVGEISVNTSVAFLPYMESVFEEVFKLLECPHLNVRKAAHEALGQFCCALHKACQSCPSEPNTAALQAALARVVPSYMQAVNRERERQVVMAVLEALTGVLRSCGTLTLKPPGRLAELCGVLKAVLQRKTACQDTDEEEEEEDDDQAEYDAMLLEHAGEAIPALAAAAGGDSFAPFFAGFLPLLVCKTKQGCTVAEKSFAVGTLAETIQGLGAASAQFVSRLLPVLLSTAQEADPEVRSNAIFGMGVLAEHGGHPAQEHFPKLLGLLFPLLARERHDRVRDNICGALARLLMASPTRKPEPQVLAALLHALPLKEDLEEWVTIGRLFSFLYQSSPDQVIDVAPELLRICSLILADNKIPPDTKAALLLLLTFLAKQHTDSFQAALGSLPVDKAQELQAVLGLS
UniProt Q9NVR2, whole entry, looked up: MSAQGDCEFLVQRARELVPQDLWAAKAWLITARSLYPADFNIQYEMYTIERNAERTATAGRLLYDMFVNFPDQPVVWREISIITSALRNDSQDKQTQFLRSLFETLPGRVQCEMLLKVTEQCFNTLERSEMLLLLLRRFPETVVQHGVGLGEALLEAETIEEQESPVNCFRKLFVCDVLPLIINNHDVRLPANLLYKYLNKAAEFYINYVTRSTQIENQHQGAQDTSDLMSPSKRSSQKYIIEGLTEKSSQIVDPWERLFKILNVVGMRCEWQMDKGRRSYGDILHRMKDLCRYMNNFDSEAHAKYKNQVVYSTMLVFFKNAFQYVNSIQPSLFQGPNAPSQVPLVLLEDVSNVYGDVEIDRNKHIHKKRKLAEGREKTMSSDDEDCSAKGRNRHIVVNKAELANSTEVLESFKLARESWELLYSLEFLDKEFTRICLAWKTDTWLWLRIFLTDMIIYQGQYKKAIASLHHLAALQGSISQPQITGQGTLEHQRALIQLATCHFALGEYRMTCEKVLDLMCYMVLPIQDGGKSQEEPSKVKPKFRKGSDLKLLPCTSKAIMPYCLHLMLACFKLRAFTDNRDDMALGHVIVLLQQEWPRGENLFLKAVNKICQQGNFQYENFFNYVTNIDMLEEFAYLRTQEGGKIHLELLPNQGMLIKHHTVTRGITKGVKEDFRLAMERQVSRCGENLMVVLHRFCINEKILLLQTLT
UniProt Q70UQ0: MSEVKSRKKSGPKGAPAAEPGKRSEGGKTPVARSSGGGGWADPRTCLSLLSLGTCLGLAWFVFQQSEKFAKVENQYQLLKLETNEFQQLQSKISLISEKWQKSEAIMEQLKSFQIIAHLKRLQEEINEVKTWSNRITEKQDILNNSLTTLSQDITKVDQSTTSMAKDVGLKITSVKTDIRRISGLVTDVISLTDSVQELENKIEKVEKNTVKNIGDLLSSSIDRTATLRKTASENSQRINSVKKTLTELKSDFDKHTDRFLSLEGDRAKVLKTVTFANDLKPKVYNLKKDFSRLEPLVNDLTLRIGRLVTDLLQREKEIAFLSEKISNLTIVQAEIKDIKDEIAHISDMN
UniProt P18065: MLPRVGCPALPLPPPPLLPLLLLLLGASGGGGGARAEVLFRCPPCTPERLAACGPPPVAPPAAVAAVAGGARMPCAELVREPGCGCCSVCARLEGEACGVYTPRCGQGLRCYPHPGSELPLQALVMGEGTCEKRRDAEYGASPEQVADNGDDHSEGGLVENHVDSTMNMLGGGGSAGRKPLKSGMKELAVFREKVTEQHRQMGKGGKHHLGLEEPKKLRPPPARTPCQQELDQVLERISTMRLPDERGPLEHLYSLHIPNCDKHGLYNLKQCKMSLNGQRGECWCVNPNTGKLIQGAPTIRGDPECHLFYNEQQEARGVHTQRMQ
UniProt Q9NV31: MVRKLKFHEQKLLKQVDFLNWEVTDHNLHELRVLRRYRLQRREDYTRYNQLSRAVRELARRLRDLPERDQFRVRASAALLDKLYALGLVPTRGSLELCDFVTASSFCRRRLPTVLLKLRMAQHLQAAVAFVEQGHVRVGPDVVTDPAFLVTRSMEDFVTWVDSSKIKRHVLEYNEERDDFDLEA
UniProt Q8TB96: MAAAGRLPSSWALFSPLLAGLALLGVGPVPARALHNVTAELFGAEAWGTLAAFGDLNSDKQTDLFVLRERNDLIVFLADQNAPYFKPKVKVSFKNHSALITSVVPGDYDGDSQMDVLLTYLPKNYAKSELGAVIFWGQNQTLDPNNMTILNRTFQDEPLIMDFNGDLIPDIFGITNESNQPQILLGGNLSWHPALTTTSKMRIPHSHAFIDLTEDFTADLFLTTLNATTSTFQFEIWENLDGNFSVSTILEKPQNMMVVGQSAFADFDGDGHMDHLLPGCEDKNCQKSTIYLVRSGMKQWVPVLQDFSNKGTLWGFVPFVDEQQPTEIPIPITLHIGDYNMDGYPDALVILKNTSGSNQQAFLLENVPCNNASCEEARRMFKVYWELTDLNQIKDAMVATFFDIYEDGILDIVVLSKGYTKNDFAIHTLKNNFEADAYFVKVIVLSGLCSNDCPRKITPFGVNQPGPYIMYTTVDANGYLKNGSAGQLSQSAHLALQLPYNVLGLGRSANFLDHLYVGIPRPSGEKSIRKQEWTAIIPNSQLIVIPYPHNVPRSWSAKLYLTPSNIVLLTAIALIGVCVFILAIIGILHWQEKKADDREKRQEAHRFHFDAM
UniProt Q96LB3: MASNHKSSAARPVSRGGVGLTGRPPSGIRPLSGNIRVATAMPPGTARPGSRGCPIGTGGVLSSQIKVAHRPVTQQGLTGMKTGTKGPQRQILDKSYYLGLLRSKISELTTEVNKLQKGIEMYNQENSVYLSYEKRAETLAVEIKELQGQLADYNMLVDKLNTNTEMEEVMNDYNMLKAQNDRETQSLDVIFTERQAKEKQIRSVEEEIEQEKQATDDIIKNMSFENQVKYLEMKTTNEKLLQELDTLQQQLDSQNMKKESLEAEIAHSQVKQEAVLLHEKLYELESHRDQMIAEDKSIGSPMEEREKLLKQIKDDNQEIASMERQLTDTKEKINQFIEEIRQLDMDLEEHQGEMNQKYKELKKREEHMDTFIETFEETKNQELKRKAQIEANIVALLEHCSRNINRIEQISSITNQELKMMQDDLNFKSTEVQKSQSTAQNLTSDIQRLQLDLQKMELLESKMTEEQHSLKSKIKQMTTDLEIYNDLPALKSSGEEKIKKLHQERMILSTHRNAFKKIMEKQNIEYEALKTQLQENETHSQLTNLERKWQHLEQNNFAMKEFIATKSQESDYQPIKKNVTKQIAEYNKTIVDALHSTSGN
UniProt Q9NX62: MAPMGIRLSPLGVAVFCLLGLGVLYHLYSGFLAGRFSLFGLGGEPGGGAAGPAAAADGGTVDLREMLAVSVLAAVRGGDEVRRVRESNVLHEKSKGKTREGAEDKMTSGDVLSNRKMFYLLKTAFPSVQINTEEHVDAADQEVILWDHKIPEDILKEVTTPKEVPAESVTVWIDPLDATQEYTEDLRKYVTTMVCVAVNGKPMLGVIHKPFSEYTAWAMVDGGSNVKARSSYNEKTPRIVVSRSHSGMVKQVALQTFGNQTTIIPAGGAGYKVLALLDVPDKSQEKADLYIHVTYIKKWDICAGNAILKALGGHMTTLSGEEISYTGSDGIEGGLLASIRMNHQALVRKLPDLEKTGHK

What was measured:
Assay in all cases: log2 fold change, soluble protein after heating vs DMSO (PISA); higher = thermal stabilisation; K562 cells, 10 uM, 30 min; active = over 0.2 and 3.5 SD of the protein, either way, in both replicates (recomputed)
[1] = compound: CC1=C(C=C(C=C1)NC(=O)C2=CC(=CC=C2)C(C)(C)C#N)NC3=CC4=C(C=C3)N=CN(C4=O)C
Outline: (§1)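 Aliquots of K562 cells (2×10^6 cells/mL) treated with 10 μM compound for 30 min were heated for 3 min over 48°C-58°C. After pooling and extraction in PBS with 0.5% NP-40 at 4°C, soluble protein from a 21,000xg, 90 min spin was quantified by TMTpro 16plex LC-MS/MS with channel sums equalised. Thermal stability is expressed against control samples, from duplicates, as a log2 fold change.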

[2] = compound: CC1=C(C=C(C=C1)NC(=O)C2=CC(=CC=C2)N(C)C)NC(=O)C3=CC=C(C=C3)O
Outline: as §1

[3] = compound: CC1=CC=C(C=C1)SC2=C3C=C(SC3=CN=C2)C(=O)N
Outline: as §1

[4] = compound: CC1=NC(=CC=C1)C2=C(N=C(N2)C(C)(C)C)C3=CC4=NC=CN=C4C=C3
Outline: as §1

Nexturastat A = compound: CCCCN(Cc1ccc(C(=O)NO)cc1)C(=O)Nc1ccccc1 [Nexturastat A]
Outline: as §1

vemurafenib = compound: CCCS(=O)(=O)Nc1ccc(F)c(C(=O)c2c[nH]c3ncc(-c4ccc(Cl)cc4)cc23)c1F [vemurafenib]
Outline: as §1

[5] = compound: CCCS(=O)(=O)Nc1ccc(F)c(C(=O)c2c[nH]c3ncc(Cl)cc23)c1F
Outline: as §1

[6] = compound: CCCc1cc(C)[nH]c(=O)c1CNC(=O)c1cc(-c2ccnc(N3CCN(C)CC3)c2)cc2c1cnn2C(C)C
Outline: as §1

givinostat = compound: CCN(CC)Cc1ccc2cc(COC(=O)Nc3ccc(C(=O)NO)cc3)ccc2c1 [givinostat]
Outline: as §1

barasertib = compound: CCN(CCCOc1ccc2c(Nc3cc(CC(=O)Nc4cccc(F)c4)[nH]n3)ncnc2c1)CCOP(=O)(O)O [barasertib]
Outline: as §1

Target	log2 fold change [1]	log2 fold change [2]	log2 fold change [3]	log2 fold change [4]	log2 fold change (Nexturastat A)	log2 fold change (vemurafenib)	log2 fold change [5]	log2 fold change [6]	log2 fold change (givinostat)	log2 fold change (barasertib)
IPO9 (UniProt Q96P70)	inactive: 0.029	inactive: 0.033	inactive: 0	inactive: -0.001	inactive: -0.075	inactive: 0.079	inactive: 0.075	inactive: -0.022	inactive: -0.018	inactive: 0.025
IRGQ (UniProt Q8WZA9)	inactive: 0.002	inactive: -0.053	inactive: 0.004	inactive: -0.038	inactive: 0.004	inactive: -0.004	inactive: -0.006	inactive: -0.008	inactive: 0.029	inactive: 0.014
IGF2BP1 (UniProt Q9NZI8)	inactive: 0.093	inactive: 0.031	inactive: -0.052	inactive: -0.107	inactive: 0.385	inactive: -0.017	inactive: 0.082	inactive: 0.167	inactive: 0.168	inactive: -0.04
IMPDH1 isoform 6 (UniProt P20839)	inactive: -0.023	inactive: 0.008	inactive: -0.044	inactive: -0.044	inactive: 0.061	inactive: -0.047	inactive: -0.065	inactive: 0.032	inactive: 0.02	inactive: -0.059
IGF2BP2 (UniProt Q9Y6M1)	inactive: 0.009	inactive: -0.001	inactive: -0.008	inactive: -0.094	inactive: 0.383	inactive: 0.065	inactive: 0	inactive: -0.011	inactive: 0.153	inactive: -0.041
IGSF3 (UniProt O75054)	inactive: -0.004	inactive: 0.035	inactive: -0.004	inactive: -0.022	inactive: -0.024	inactive: 0.029	inactive: 0	inactive: -0.016	inactive: 0.017	inactive: 0.028
IFRD2 isoform 2 (UniProt Q12894)	inactive: 0.093	inactive: 0.035	inactive: -0.129	inactive: -0.13	inactive: 0.055	inactive: -0.043	inactive: 0.062	inactive: -0.225	inactive: -0.2	inactive: -0.142
INTS4 (UniProt Q96HW7)	inactive: 0.014	inactive: -0.001	inactive: 0.004	inactive: 0.01	inactive: -0.044	inactive: 0	inactive: 0.003	inactive: -0.023	inactive: 0.001	inactive: 0.015
IPO4 isoform 2 (UniProt Q8TEX9)	inactive: 0.014	inactive: 0.007	inactive: 0.044	inactive: 0.03	inactive: 0.196	inactive: 0.016	inactive: 0.11	inactive: 0.087	inactive: 0.029	inactive: 0.066
INTS10 (UniProt Q9NVR2)	inactive: 0.004	inactive: -0.058	inactive: 0.048	inactive: 0.059	inactive: -0.04	inactive: 0.084	inactive: 0.024	inactive: -0.001	inactive: 0.02	inactive: 0.1
IKBIP (UniProt Q70UQ0)	inactive: -0.045	inactive: 0.019	inactive: -0.004	inactive: 0.009	inactive: 0.022	inactive: -0.062	inactive: -0.023	inactive: -0.026	inactive: -0.019	inactive: -0.002
IGFBP2 (UniProt P18065)	inactive: -0.154	inactive: 0.173	inactive: 0.201	inactive: 0.349	inactive: 0.106	inactive: 0.262	inactive: -0.003	inactive: -0.409	inactive: 0.056	inactive: 0.012
INPP1 (UniProt P49441)	inactive: 0.039	inactive: 0.016	inactive: 0.054	inactive: 0.052	inactive: 0.061	inactive: 0.031	inactive: -0.071	inactive: 0.079	inactive: -0.032	inactive: -0.03
IMP3 (UniProt Q9NV31)	inactive: -0.193	inactive: 0.639	inactive: -0.135	inactive: -0.388	inactive: 0.349	inactive: -0.001	inactive: 0.058	inactive: 0.02	inactive: 0.227	inactive: 0.075
ITPK1 (UniProt Q13572)	inactive: -0.045	inactive: -0.081	inactive: 0.04	inactive: 0.06	inactive: 0.005	inactive: 0.025	inactive: -0.019	inactive: -0.032	inactive: -0.018	inactive: 0.049
ITFG1 (UniProt Q8TB96)	inactive: -0.045	inactive: -0.026	inactive: -0.008	inactive: 0.008	inactive: -0.084	inactive: 0.068	inactive: -0.038	inactive: 0.144	inactive: -0.01	inactive: 0.04
IFT74 (UniProt Q96LB3)	inactive: -0.086	inactive: -0.044	inactive: -0.01	inactive: -0.084	active: 0.746	inactive: -0.059	inactive: 0.005	inactive: -0.007	inactive: 0.26	inactive: -0.037
ITGB5 (UniProt P18084)	inactive: -0.067	inactive: -0.025	inactive: -0.01	inactive: 0.006	inactive: -0.001	inactive: 0.004	inactive: -0.004	inactive: 0.003	inactive: 0	inactive: -0.007
IPO13 (UniProt O94829)	inactive: 0.068	inactive: -0.013	inactive: -0.008	inactive: -0.027	inactive: -0.03	inactive: -0.01	inactive: 0.047	inactive: 0.009	inactive: -0.011	inactive: 0.044
IL18 (UniProt Q14116)	inactive: -0.047	inactive: -0.041	inactive: 0.042	inactive: -0.034	inactive: -0.058	inactive: -0.037	inactive: -0.004	inactive: -0.068	inactive: 0.004	inactive: 0.045
INPP4A (UniProt Q96PE3)	inactive: -0.02	inactive: -0.103	inactive: -0.027	inactive: -0.023	inactive: -0.022	inactive: -0.013	inactive: -0.026	inactive: -0.127	inactive: 0.009	inactive: 0.032
ISOC1 (UniProt Q96CN7)	inactive: -0.005	inactive: -0.018	inactive: -0.001	inactive: -0.003	inactive: -0.049	inactive: 0.008	inactive: -0.021	inactive: -0.068	inactive: -0.005	inactive: -0.024
IFI30 (UniProt P13284)	inactive: -0.043	inactive: 0.043	inactive: 0.018	inactive: -0.046	inactive: 0.056	inactive: 0.056	inactive: 0.183	inactive: 0.034	inactive: 0.018	inactive: 0.028
IMPAD1 (UniProt Q9NX62)	inactive: -0.081	inactive: 0.005	inactive: 0.042	inactive: 0.036	inactive: -0.024	inactive: 0.024	inactive: 0.008	inactive: 0.023	inactive: -0.055	inactive: -0.017
ITGB1 (UniProt P05556)	inactive: -0.025	inactive: -0.022	inactive: 0.02	inactive: 0	inactive: -0.009	inactive: -0.01	inactive: -0.022	inactive: 0.008	inactive: -0.018	inactive: 0.007

Individual results from the entries so far:
Value for ITGB5 (UniProt P18084) under log2 fold change [4]: inactive: 0.006
Value for INTS10 (UniProt Q9NVR2) under log2 fold change [6]: inactive: -0.001
